In paper PMC12858401:
Results are given in words; binding and its absence hold for the method and conditions named. In cells and extracts the contact can be indirect. These calls come from enrichment with a bait or labelling near it, and not all partners need be listed.

Protein sequences, listed by entry. Tags and fused reporters are not part of them. Residues count along the entry.
UniProt Q15075: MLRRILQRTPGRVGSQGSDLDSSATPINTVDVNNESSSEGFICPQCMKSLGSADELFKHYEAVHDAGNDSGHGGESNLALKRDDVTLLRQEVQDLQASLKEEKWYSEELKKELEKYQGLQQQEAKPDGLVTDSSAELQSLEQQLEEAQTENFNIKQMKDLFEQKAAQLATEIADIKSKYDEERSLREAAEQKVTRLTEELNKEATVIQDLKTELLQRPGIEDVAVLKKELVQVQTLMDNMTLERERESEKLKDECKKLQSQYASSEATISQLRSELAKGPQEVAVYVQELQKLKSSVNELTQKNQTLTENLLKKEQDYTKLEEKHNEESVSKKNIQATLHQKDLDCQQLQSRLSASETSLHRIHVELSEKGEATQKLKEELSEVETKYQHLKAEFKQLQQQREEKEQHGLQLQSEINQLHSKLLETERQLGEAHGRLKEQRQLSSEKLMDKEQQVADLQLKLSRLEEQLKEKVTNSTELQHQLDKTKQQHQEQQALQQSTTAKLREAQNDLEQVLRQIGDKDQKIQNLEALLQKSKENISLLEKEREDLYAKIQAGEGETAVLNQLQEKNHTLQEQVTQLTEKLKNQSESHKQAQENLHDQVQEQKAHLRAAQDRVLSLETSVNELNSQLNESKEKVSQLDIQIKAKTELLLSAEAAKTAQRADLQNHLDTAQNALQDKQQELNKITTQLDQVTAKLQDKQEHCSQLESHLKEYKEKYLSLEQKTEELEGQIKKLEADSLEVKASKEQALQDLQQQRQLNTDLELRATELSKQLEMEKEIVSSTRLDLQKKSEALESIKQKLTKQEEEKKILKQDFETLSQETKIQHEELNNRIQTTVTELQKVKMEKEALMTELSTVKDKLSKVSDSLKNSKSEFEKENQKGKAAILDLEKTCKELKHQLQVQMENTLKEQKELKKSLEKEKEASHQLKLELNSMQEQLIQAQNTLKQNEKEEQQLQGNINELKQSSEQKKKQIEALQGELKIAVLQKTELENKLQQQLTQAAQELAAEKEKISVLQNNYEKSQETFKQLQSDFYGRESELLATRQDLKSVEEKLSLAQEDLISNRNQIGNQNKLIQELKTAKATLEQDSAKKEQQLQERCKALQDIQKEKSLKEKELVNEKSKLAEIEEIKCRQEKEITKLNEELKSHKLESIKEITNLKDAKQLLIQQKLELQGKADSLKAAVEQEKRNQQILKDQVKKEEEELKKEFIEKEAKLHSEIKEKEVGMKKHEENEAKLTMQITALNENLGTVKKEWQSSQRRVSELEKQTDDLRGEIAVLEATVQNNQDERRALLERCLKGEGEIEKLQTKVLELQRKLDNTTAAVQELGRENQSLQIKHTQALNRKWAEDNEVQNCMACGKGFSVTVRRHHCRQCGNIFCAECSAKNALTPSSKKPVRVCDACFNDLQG
UniProt P09211: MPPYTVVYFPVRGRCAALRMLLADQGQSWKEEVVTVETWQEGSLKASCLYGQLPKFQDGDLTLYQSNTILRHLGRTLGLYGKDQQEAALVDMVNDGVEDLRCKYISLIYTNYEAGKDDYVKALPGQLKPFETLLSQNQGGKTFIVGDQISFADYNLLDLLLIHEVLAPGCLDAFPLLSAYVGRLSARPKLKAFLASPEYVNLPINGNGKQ
UniProt P52630: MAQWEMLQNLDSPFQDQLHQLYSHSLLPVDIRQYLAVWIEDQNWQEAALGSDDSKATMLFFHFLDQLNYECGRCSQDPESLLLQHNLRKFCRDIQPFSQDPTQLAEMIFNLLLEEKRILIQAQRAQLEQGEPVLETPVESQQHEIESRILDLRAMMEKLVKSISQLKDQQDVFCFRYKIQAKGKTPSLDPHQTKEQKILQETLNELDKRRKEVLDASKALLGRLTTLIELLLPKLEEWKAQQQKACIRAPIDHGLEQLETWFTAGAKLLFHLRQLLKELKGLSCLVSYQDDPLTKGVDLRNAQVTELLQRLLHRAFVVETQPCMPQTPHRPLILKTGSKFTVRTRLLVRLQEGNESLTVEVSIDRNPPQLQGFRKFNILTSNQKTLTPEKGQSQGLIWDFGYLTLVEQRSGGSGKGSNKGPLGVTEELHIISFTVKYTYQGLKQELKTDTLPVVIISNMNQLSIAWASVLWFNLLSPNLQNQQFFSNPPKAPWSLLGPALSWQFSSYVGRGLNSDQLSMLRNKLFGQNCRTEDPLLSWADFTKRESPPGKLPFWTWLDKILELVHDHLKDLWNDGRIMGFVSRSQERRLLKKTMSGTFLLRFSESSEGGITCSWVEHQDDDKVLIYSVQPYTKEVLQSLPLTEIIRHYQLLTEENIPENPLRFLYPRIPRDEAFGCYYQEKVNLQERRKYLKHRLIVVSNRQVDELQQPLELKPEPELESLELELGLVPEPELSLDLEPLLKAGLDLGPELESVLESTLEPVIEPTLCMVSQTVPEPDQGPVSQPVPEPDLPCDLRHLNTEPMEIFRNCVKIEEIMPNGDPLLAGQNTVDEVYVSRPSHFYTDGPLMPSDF
UniProt Q99805, residues 29-663: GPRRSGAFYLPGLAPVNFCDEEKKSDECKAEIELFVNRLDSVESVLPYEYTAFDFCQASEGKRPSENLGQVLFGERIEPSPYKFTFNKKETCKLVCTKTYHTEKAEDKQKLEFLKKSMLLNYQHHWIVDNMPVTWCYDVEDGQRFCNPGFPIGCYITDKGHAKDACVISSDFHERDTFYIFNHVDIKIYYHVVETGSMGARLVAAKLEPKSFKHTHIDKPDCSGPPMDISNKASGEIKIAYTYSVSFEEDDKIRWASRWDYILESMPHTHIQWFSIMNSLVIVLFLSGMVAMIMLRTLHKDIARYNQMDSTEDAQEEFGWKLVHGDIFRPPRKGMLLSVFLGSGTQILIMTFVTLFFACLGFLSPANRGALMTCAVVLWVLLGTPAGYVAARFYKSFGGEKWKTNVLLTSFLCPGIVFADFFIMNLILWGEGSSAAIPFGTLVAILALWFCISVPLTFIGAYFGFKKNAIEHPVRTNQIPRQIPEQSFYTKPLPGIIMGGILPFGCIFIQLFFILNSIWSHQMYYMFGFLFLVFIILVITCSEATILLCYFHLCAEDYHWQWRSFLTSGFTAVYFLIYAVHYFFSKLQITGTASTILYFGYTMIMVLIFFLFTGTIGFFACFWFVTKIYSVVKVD
UniProt Q07157: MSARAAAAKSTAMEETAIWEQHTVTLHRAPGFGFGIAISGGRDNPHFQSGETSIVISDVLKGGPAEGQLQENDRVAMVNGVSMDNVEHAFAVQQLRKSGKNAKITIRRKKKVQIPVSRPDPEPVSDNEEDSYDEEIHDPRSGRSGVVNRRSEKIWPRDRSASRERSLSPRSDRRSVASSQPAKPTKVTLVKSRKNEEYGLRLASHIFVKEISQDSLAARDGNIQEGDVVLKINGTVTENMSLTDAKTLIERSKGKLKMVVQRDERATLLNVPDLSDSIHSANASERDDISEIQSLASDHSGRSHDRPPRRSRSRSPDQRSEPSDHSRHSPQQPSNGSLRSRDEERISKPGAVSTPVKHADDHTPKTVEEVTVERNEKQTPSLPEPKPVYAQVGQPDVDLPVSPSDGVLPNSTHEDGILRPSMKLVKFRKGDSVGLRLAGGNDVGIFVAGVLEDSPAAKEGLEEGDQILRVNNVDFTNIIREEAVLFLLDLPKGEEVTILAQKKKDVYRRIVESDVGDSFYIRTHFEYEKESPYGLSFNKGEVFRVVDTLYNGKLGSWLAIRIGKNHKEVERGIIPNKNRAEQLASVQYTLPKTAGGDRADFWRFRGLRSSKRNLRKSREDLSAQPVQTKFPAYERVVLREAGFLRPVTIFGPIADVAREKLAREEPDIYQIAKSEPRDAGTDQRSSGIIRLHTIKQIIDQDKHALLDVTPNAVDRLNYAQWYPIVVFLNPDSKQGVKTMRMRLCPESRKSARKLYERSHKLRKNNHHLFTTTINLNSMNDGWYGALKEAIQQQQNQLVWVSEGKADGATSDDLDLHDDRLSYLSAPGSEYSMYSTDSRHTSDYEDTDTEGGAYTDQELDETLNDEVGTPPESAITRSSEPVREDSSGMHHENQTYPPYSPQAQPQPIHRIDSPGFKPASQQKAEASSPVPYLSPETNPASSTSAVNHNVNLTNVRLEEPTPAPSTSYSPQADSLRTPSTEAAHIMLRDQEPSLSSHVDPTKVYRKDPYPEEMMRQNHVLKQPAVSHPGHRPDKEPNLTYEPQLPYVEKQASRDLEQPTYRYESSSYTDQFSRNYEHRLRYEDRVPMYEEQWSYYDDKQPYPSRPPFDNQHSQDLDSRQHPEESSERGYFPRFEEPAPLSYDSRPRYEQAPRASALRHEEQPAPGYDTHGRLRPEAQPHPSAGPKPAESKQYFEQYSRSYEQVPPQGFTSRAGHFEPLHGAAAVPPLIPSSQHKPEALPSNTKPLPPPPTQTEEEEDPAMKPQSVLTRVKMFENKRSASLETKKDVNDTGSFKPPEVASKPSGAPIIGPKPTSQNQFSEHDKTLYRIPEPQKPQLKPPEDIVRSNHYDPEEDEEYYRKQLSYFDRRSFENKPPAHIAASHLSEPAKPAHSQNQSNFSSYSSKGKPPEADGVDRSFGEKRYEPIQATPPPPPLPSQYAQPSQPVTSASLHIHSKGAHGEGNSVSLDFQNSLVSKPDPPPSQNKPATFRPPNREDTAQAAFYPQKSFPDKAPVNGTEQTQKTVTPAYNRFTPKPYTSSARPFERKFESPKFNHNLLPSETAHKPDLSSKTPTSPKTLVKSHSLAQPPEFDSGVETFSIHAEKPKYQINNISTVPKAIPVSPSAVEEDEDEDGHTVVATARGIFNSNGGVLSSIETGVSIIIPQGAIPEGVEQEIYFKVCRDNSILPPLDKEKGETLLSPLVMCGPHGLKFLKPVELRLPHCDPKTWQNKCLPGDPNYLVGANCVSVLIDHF

Experiments:
[1] = target: EGFR–HaloTag (Flag–EGFR–HaloTag; full-length EGFR with an intracellular C-terminal HaloTag) (UniProt P00533); assay: proximity labelling; ICD ecto-tag MultiMap: live A549 cells expressing EGFR–HaloTag, serum-starved, EY–HTL anchored and washed out; with versus without EGFR–HaloTag, and EGF for 5 min or 60 min versus no EGF; three biotin photoprobes at 100 μM, 2 min blue light at 4 °C; streptavidin enrichment and LC–MS/MS
[2] = target: Flag–EGFR (full-length EGFR with an extracellular N-terminal Flag tag) (UniProt P00533); assay: proximity labelling; ECD ecto-tag MultiMap: live A549 cells expressing Flag–EGFR, serum-starved, anti-Flag–EY antibody bound at 4 °C; EGF for 5 min or 60 min versus no EGF; aryl-diazirine-biotin, aryl-azide-biotin or phenol-biotin at 100 μM, 2 min blue light at 4 °C; streptavidin enrichment and LC–MS/MS; enrichment normalised to EGFR
[3] = target: EGFR–HaloTag (Flag–EGFR–HaloTag; full-length EGFR with an intracellular C-terminal HaloTag) (UniProt P00533); assay: proximity labelling; ICD ecto-tag MultiMap with EY–HTL on EGFR–HaloTag in A549 cells; biotin immunoprecipitate (streptavidin beads) read by western blot; EGF for 5, 10, 30 and 60 min

Molecule | binding [1] | binding [2] | binding [3]
Early endosomal protein EEA1 (from UniProt Q15075 1-1411) | binds | – | –
GSTP1 (from UniProt P09211 1-210) (enzyme) | binds | binds | –
Integrin A2 (ITGA2) (from UniProt P17301 30-1181) | – | binds | binds
PDLIM7 (from UniProt Q9NR12 1-457) | binds | – | –
STAT2 (from UniProt P52630 1-851) | – | binds | –
TM9S2 (from UniProt Q99805 29-663) | binds | – | –
ZO1 (from UniProt Q07157 1-1748) | binds | binds | –
β-catenin (from UniProt P35222 1-781) | binds | binds | –
TMED10 (protein, UniProt P49755 32-219) ISFHLPINSRKCLREEIHKDLLVTGAYEISDQSGGAGGLRSHLKITDSAGHILYSKEDATKGKFAFTTEDYDMFEVCFESKGTGRIPDQLVILDMKHGVEAKNYEEIAKVEKLKPLEVELRRLEDLSESIVNDFAYMKKREEEMRDTNESTNTRVLYFSIFSMFCLIGLATWQVFYLRRFFKAKKLIE | – | binds | –
CD166 (protein, UniProt Q13740 28-583) WYTVNSAYGDTIIIPCRLDVPQNLMFGKWKYEKPDGSPVFIAFRSSTKKSVQYDDVPEYKDRLNLSENYTLSISNARISDEKRFVCMLVTEDNVFEAPTIVKVFKQPSKPEIVSKALFLETEQLKKLGDCISEDSYPDGNITWYRNGKVLHPLEGAVVIIFKKEMDPVTQLYTMTSTLEYKTTKADIQMPFTCSVTYYGPSGQKTIHSEQAVFDIYYPTEQVTIQVLPPKNAIKEGDNITLKCLGNGNPPPEEFLFYLPGQPEGIRSSNTYTLTDVRRNATGDYKCSLIDKKSMIASTAITVHYLDLSLNPSGEVTRQIGDALPVSCTISASRNATVVWMKDNIRLRSSPSFSSLHYQDAGNYVCETALQEVEGLKKRESLTLIVEGKPQIKMTKKTDPSGLSKTIICHVEGFPKPAIQWTITGSGSVINQTEESPYINGRYYSKIIISPEENVTLTCTAENQLERTVNSLNVSAISIPEHDEADEISDENREKVNDQAKLIVGIVVGLLLAALVAGVVYWLYMKKSKTASKHVNKDLGNMEENKKLEENNHKTEA | – | binds | –
CLPTM1 (protein, UniProt O96005 1-669) MAAAQEADGARSAVVAAGGGSSGQVTSNGSIGRDPPAETQPQNPPAQPAPNAWQVIKGVLFRIFIIWAISSWFRRGPAPQDQAGPGGAPRVASRNLFPKDTLMNLHVYISEHEHFTDFNATSALFWEQHDLVYGDWTSGENSDGCYEHFAELDIPQSVQQNGSIYIHVYFTKSGFHPDPRQKALYRRLATVHMSRMINKYKRRRFQKTKNLLTGETEADPEMIKRAEDYGPVEVISHWHPNITINIVDDHTPWVKGSVPPPLDQYVKFDAVSGDYYPIIYFNDYWNLQKDYYPINESLASLPLRVSFCPLSLWRWQLYAAQSTKSPWNFLGDELYEQSDEEQDSVKVALLETNPYLLALTIIVSIVHSVFEFLAFKNDIQFWNSRQSLEGLSVRSVFFGVFQSFVVLLYILDNETNFVVQVSVFIGVLIDLWKITKVMDVRLDREHRVAGIFPRLSFKDKSTYIESSTKVYDDMAFRYLSWILFPLLGCYAVYSLLYLEHKGWYSWVLSMLYGFLLTFGFITMTPQLFINYKLKSVAHLPWRMLTYKALNTFIDDLFAFVIKMPVMYRIGCLRDDVVFFIYLYQRWIYRVDPTRVNEFGMSGEDPTAAAPVAEVPTAAGALTPTPAPTTTTATREEASTSLPTKPTQGASSASEPQEAPPKPAEDKKKD | – | binds | –
MX1 (protein, UniProt P20591 1-662) MVVSEVDIAKADPAAASHPLLLNGDATVAQKNPGSVAENNLCSQYEEKVRPCIDLIDSLRALGVEQDLALPAIAVIGDQSSGKSSVLEALSGVALPRGSGIVTRCPLVLKLKKLVNEDKWRGKVSYQDYEIEISDASEVEKEINKAQNAIAGEGMGISHELITLEISSRDVPDLTLIDLPGITRVAVGNQPADIGYKIKTLIKKYIQRQETISLVVVPSNVDIATTEALSMAQEVDPEGDRTIGILTKPDLVDKGTEDKVVDVVRNLVFHLKKGYMIVKCRGQQEIQDQLSLSEALQREKIFFENHPYFRDLLEEGKATVPCLAEKLTSELITHICKSLPLLENQIKETHQRITEELQKYGVDIPEDENEKMFFLIDKVNAFNQDITALMQGEETVGEEDIRLFTRLRHEFHKWSTIIENNFQEGHKILSRKIQKFENQYRGRELPGFVNYRTFETIVKQQIKALEEPAVDMLHTVTDMVRLAFTDVSIKNFEEFFNLHRTAKSKIEDIRAEQEREGEKLIRLHFQMEQIVYCQDQVYRGALQKVREKELEEEKKKKSWDFGAFQSSSATDSSMEEIFQHLMAYHQEASKRISSHIPLIIQFFMLQTYGQQLQKAMLQLLQDKDTYSWLLKERSDTSDKRKFLKERLARLTQARRRLAQFPG | – | binds | –
STX7 (protein, UniProt O15400 1-261) MSYTPGVGGDPAQLAQRISSNIQKITQCSVEIQRTLNQLGTPQDSPELRQQLQQKQQYTNQLAKETDKYIKEFGSLPTTPSEQRQRKIQKDRLVAEFTTSLTNFQKVQRQAAEREKEFVARVRASSRVSGSFPEDSSKERNLVSWESQTQPQVQVQDEEITEDDLRLIHERESSIRQLEADIMDINEIFKDLGMMIHEQGDVIDSIEANVENAEVHVQQANQQLSRAADYQRKSRKTLCIIILILVIGVAIISLIIWGLNH | – | binds | –
AP1M1 (protein, UniProt Q9BXS5 1-423) MSASAVYVLDLKGKVLICRNYRGDVDMSEVEHFMPILMEKEEEGMLSPILAHGGVRFMWIKHNNLYLVATSKKNACVSLVFSFLYKVVQVFSEYFKELEEESIRDNFVIIYELLDELMDFGYPQTTDSKILQEYITQEGHKLETGAPRPPATVTNAVSWRSEGIKYRKNEVFLDVIESVNLLVSANGNVLRSEIVGSIKMRVFLSGMPELRLGLNDKVLFDNTGRGKSKSVELEDVKFHQCVRLSRFENDRTISFIPPDGEFELMSYRLNTHVKPLIWIESVIEKHSHSRIEYMIKAKSQFKRRSTANNVEIHIPVPNDADSPKFKTTVGSVKWVPENSEIVWSIKSFPGGKEYLMRAHFGLPSVEAEDKEGKPPISVKFEIPYFTTSGIQVRYLKIIEKSGYQALPWVRYITQNGDYQLRTQ | – | binds | –
SCARB1 (protein, UniProt Q8WTV0 1-552) MGCSAKARWAAGALGVAGLLCAVLGAVMIVMVPSLIKQQVLKNVRIDPSSLSFNMWKEIPIPFYLSVYFFDVMNPSEILKGEKPQVRERGPYVYREFRHKSNITFNNNDTVSFLEYRTFQFQPSKSHGSESDYIVMPNILVLGAAVMMENKPMTLKLIMTLAFTTLGERAFMNRTVGEIMWGYKDPLVNLINKYFPGMFPFKDKFGLFAELNNSDSGLFTVFTGVQNISRIHLVDKWNGLSKVDFWHSDQCNMINGTSGQMWPPFMTPESSLEFYSPEACRSMKLMYKESGVFEGIPTYRFVAPKTLFANGSIYPPNEGFCPCLESGIQNVSTCRFSAPLFLSHPHFLNADPVLAEAVTGLHPNQEAHSLFLDIHPVTGIPMNCSVKLQLSLYMKSVAGIGQTGKIEPVVLPLLWFAESGAMEGETLHTFYTQLVLMPKVMHYAQYVLLALGCVLLLVPVICQIRSQVGAGQRAARADSHSLACWGKGASDRTLWPTAAWSPPPAAVLRLCRSGSGHCWGLRSTLASFACRVATTLPVLEGLGPSLGGGTGS | – | binds | –
BCAM (protein, UniProt P50895 32-628) EVRLSVPPLVEVMRGKSVILDCTPTGTHDHYMLEWFLTDRSGARPRLASAEMQGSELQVTMHDTRGRSPPYQLDSQGRLVLAEAQVGDERDYVCVVRAGAAGTAEATARLNVFAKPEATEVSPNKGTLSVMEDSAQEIATCNSRNGNPAPKITWYRNGQRLEVPVEMNPEGYMTSRTVREASGLLSLTSTLYLRLRKDDRDASFHCAAHYSLPEGRHGRLDSPTFHLTLHYPTEHVQFWVGSPSTPAGWVREGDTVQLLCRGDGSPSPEYTLFRLQDEQEEVLNVNLEGNLTLEGVTRGQSGTYGCRVEDYDAADDVQLSKTLELRVAYLDPLELSEGKVLSLPLNSSAVVNCSVHGLPTPALRWTKDSTPLGDGPMLSLSSITFDSNGTYVCEASLPTVPVLSRTQNFTLLVQGSPELKTAEIEPKADGSWREGDEVTLICSARGHPDPKLSWSQLGGSPAEPIPGRQGWVSSSLTLKVTSALSRDGISCEASNPHGNKRHVFHFGTVSPQTSQAGVAVMAVAVSVGLLLLVVAVFYCVRRKGGPCCRQRREKGAPPPGEPGLSHSGSEQPEQTGLLMGGASGGARGGSGGFGDEC | – | binds | –
LASP1 (protein, UniProt Q14847 1-261) MNPNCARCGKIVYPTEKVNCLDKFWHKACFHCETCKMTLNMKNYKGYEKKPYCNAHYPKQSFTMVADTPENLRLKQQSELQSQVRYKEEFEKNKGKGFSVVADTPELQRIKKTQDQISNIKYHEEFEKSRMGPSGGEGMEPERRDSQDGSSYRRPLEQQQPHHIPTSAPVYQQPQQQPVAQSYGGYKEPAAPVSIQRSAPGGGGKRYRAVYDYSAADEDEVSFQDGDTIVNVQQIDDGWMYGTVERTGDTGMLPANYVEAI | binds | – | –
Translocon-associated protein SSRA (protein, UniProt P43307 19-286) VLFRGGPRGLLAVAQDLTEDEETVEDSIIEDEDDEAEVEEDEPTDLVEDKEEEDVSGEPEASPSADTTILFVKGEDFPANNIVKFLVGFTNKGTEDFIVESLDASFRYPQDYQFYIQNFTALPLNTVVPPQRQATFEYSFIPAEPMGGRPFGLVINLNYKDLNGNVFQDAVFNQTVTVIEREDGLDGETIFMYMFLAGLGLLVIVGLHQLLESRKRKRPIQKVEMGTSSQNDVDMSWIPQETLNQINKASPRRLPRKRAQKRSVGSDE | binds | – | –
